Laboratory results taken from the supplement of paper PMC7024190.
The other results are listed elsewhere or left out. This data set is noisy: repeats of one test often differ as much as different tests do.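 A first-round screen of about ten thousand compounds sought those raising reporter output, using human embryonic kidney cells briefly transfected with a plasmid carrying a Renilla luciferase gene driven by the HSV-TK promoter.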

System: HEK 293FT
Experiment: log relative Renilla luciferase luminescence (reporter expression vs reference, reference not stated) (log (base not stated)); higher = higher recombinant reporter expression
Details: 10 µM; time after transfection 48 h
Protocol: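 HEK 293FT cells transiently transfected with pRL-TK (Renilla luciferase) were treated with compounds at 10 uM and luminescence was read about 42 h later. Values are log relative Renilla luminescence (log base and reference not stated). Single-pass screen; 2080 natural products library.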

Structure (SMILES) | log
COC[C@@H]1Cc2cc(OC)c3c(c2[C@H](c2ccc(OC)c(OC)c2)[C@H]1COC)OCO3 [Hypophyllanthin] | 0.0788
C=C(C(=O)O)[C@@H]1CC[C@@]2(C)CCCC(=C)[C@@H]2C1 [beta-Costic acid] | -0.212
O=c1c2ccccc2nc2n1CC[C@@H]2O [Vasicinone] | -0.131
COc1c(-c2ccc(O)c(O)c2)oc2cc(O)cc(O)c2c1=O [3-O-Methylquercetin] | -0.195
CC1=CC[C@]2(C)CC[C@]3(C)[C@H](CC[C@@H]4[C@@]5(C)CC[C@H](O)C(C)(C)[C@@H]5CC[C@]43C)[C@H]2[C@@H]1C [Pseudotaraxasterol] | 0.161
COc1ccc(-c2cc(=O)c3c(O)c(OC)c(OC)cc3o2)cc1 [Salvigenin] | 0.198
C=C1C(=O)O[C@@H]2C3O[C@]3(C)CC/C=C(\C)C[C@@H](OC(C)=O)[C@@H]12 (some centres undefined) [Lipiferolide] | 0.0106
COc1cc([C@H]2OC[C@H]3[C@@H]2CO[C@@H]3c2ccc(O[C@@H]3O[C@H](CO)[C@@H](O)[C@H](O)[C@H]3O)c(OC)c2)ccc1O [(+)-Pinoresinol-4-O-beta-D-glucopyranoside] | -0.554
COC(=O)c1ccc(O)cc1 [Methyl 4-hydroxybenzoate] | -0.248
O=c1c2cc(O)ccc2nc2n1CC[C@@H]2O [Vasicinolone] | -0.217
COc1c(O)cc2oc(-c3ccc(O)cc3)cc(=O)c2c1O [Hispidulin] | 0.012
O=C(N[C@@H](Cc1ccccc1)C(=O)N[C@H](CO)Cc1ccccc1)c1ccccc1 [Aurantiamide] | -0.053
Cc1cccc2c3c(ccc12)C(=O)C(=O)C1=C3OC[C@H]1C [Dihydroisotanshinone II] | -0.357
COC(=O)C1=CO[C@@H](C)[C@@H]2CN3CCc4c([nH]c5ccccc45)[C@@H]3C[C@H]12 [Tetrahydroalstonine] | 0.0719

Quoted at random: two compounds from above
Structure (SMILES) | log
COC(=O)C1=CO[C@@H](C)[C@@H]2CN3CCc4c([nH]c5ccccc45)[C@@H]3C[C@H]12 [Tetrahydroalstonine] | 0.0719
COc1c(-c2ccc(O)c(O)c2)oc2cc(O)cc(O)c2c1=O [3-O-Methylquercetin] | -0.195
